Results from article PMC6140323.
Results are given in words; binding and its absence hold for the method and conditions named. In cells and extracts the contact can be indirect. Binding can be weak; no strength is given.

Protein sequences, listed by entry. Tags and fused reporters are not part of them. Lines headed by an entry give the natural chain unless they say otherwise; changes in a name come on top.
UniProt Q969T3: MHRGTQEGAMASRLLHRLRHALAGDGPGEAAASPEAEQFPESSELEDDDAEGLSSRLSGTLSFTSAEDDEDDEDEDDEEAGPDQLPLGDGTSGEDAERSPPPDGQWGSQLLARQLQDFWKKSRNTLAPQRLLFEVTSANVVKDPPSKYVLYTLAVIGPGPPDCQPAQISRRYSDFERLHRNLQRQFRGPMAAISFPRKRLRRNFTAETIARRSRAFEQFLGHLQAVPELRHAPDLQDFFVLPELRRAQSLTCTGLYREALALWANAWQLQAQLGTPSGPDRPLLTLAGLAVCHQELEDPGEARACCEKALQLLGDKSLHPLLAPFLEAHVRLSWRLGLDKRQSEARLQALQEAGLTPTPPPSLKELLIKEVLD

How the values were obtained:
Test in all cases: co-IP; GFP-nanotrap precipitation of GFP-tagged constructs from transiently transfected HEK293-T lysates (50 mM Tris-HCl pH 7.4, 0.5% NP40), 1 h at 4°C; western blot for endogenous Htt and septins
[1] = target: GFP-SNX21 site-directed mutant of E270 (human) (UniProt Q969T3)
[2] = target: GFP-SNX21 site-directed mutant of E307 (human) (UniProt Q969T3)
[3] = target: GFP-SNX21 site-directed mutant of E365 (human) (UniProt Q969T3)
[4] = target: GFP-SNX21 site-directed mutant of E370 (human) (UniProt Q969T3)
[5] = target: GFP-SNX21 site-directed mutant of I368 (human) (UniProt Q969T3)
[6] = target: GFP-SNX21 site-directed mutant of L260 (human) (UniProt Q969T3)
[7] = target: GFP-SNX21 site-directed mutant of L310 (human) (UniProt Q969T3)
[8] = target: GFP-SNX21 site-directed mutant of L313 (human) (UniProt Q969T3)
[9] = target: GFP-SNX21 site-directed mutant of L332 (human) (UniProt Q969T3)

Measured: binding

B1: septin 2 (SEPT2), endogenous (protein, UniProt Q15019 1-361)
chain: MSKQQPTQFINPETPGYVGFANLPNQVHRKSVKKGFEFTLMVVGESGLGKSTLINSLFLTDLYPERVIPGAAEKIERTVQIEASTVEIEERGVKLRLTVVDTPGYGDAINCRDCFKTIISYIDEQFERYLHDESGLNRRHIIDNRVHCCFYFISPFGHGLKPLDVAFMKAIHNKVNIVPVIAKADTLTLKERERLKKRILDEIEEHNIKIYHLPDAESDEDEDFKEQTRLLKASIPFSVVGSNQLIEAKGKKVRGRLYPWGVVEVENPEHNDFLKLRTMLITHMQDLQEVTQDLHYENFRSERLKRGGRKVENEDMNKDQILLEKEAELRRMQEMIARMQAQMQMQMQGGDGDGGALGHHV
binds: all assays above

B2: septin 7 (SEPT7), endogenous (protein, UniProt Q16181 1-437)
chain: MSVSARSAAAEERSVNSSTMVAQQKNLEGYVGFANLPNQVYRKSVKRGFEFTLMVVGESGLGKSTLINSLFLTDLYSPEYPGPSHRIKKTVQVEQSKVLIKEGGVQLLLTIVDTPGFGDAVDNSNCWQPVIDYIDSKFEDYLNAESRVNRRQMPDNRVQCCLYFIAPSGHGLKPLDIEFMKRLHEKVNIIPLIAKADTLTPEECQQFKKQIMKEIQEHKIKIYEFPETDDEEENKLVKKIKDRLPLAVVGSNTIIEVNGKRVRGRQYPWGVAEVENGEHCDFTILRNMLIRTHMQDLKDVTNNVHYENYRSRKLAAVTYNGVDNNKNKGQLTKSPLAQMEEERREHVAKMKKMEMEMEQVFEMKVKEKVQKLKDSEAELQRRHEQMKKNLEAQHKELEEKRRQFEDEKANWEAQQRILEQQNSSRTLEKNKKKGKIF
binds: all assays above

B3: septin 9 (SEPT9), endogenous (protein, UniProt Q9UHD8 1-586)
chain: MKKSYSGGTRTSSGRLRRLGDSSGPALKRSFEVEEVETPNSTPPRRVQTPLLRATVASSTQKFQDLGVKNSEPSARHVDSLSQRSPKASLRRVELSGPKAAEPVSRRTELSIDISSKQVENAGAIGPSRFGLKRAEVLGHKTPEPAPRRTEITIVKPQESAHRRMEPPASKVPEVPTAPATDAAPKRVEIQMPKPAEAPTAPSPAQTLENSEPAPVSQLQSRLEPKPQPPVAEATPRSQEATEAAPSCVGDMADTPRDAGLKQAPASRNEKAPVDFGYVGIDSILEQMRRKAMKQGFEFNIMVVGQSGLGKSTLINTLFKSKISRKSVQPTSEERIPKTIEIKSITHDIEEKGVRMKLTVIDTPGFGDHINNENCWQPIMKFINDQYEKYLQEEVNINRKKRIPDTRVHCCLYFIPATGHSLRPLDIEFMKRLSKVVNIVPVIAKADTLTLEERVHFKQRITADLLSNGIDVYPQKEFDEDSEDRLVNEKFREMIPFAVVGSDHEYQVNGKRILGRKTKWGTIEVENTTHCEFAYLRDLLIRTHMQNIKDITSSIHFEAYRVKRLNEGSSAMANGMEEKEPEAPEM
binds: all assays above
